Out of some 400,000 compounds screened, about 13,000 (3.2%) were called active. The inconclusive results got no clear call from the source; some entries with a clear call stand among them for comparison. Calls come from the whole dose curve; as a rule, active = well fitted cell-killing curve with a large enough effect; inconclusive = small, poorly fitted or top-dose-only effect, or effect the other way; inactive = flat fitted curve, though single readings scatter. Where the call is inconclusive, the potency comes from a doubtful curve fit.
experiment: qHTS assay for MDR1-selective chemotherapeutics: Primary screen using the drug-selected MDR subline cells KB-V1; conditions: KB-V1 MDR cells viability, CellTiter-Glo, 72 h; series mostly up to 46.1 µM; note: nearly all actives have a fitted effect of over 60% in size
How it was run: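 Drug-selected KB-V1 cells, grown in DMEM lacking phenol red with 10% FBS, receive compound titrations; after three days at 37 degrees C, surviving cell ATP is quantified by CellTiter-Glo luminescence and responses normalized and curve-fitted.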
Potency is the fitted concentration of half-maximal effect.

Question: With `COc1cccc(N2C(=O)C(Cc3c[nH]c4ccccc34)NC2=S)c1` (stereo unspecified) as the molecule, how does the Potency read?
Answer: inconclusive: 20.6 µM [cytotoxic, partial curve, poor fit]

Question: With `COc1ccc(/C=C(/NC(=O)c2ccccc2)C(=O)N/N=C/c2ccncc2)cc1` as the molecule, how does the Potency read?
Answer: inconclusive: 23.1 µM [rising, single point]

Question: For `CCc1ccc(OCc2nnc(SCC(=O)N3CCOCC3)o2)cc1`, which Potency is on record?
Answer: inconclusive: 25.9 µM [rising, partial curve, poor fit]

Question: With `CCCCNC(=O)c1ccc(Cn2c(=S)[nH]c3c([nH]c4ccc(OC)cc43)c2=O)cc1` as the molecule, how does the Potency read?
Answer: inactive

Question: With `Cc1ccc(S(=O)(=O)Nc2cc(C)cn(Cc3ccc(F)cc3)c2=O)cc1` as the molecule, how does the Potency read?
Answer: inconclusive: 9.2 µM [cytotoxic, partial curve, poor fit]

Question: Which Potency does the source give for `CC1(C)Cc2ccccc2-c2nnc(SCc3ccc(C#N)cc3)n21` here?
Answer: inconclusive: 29.1 µM [cytotoxic, single point]

Question: For `CCOc1ccc2nc(NC(=O)COc3ccc(N(C)S(=O)(=O)c4ccc(C)cc4)cc3)sc2c1`, which Potency is on record?
Answer: inactive

Question: With `O=C(NC1CCS(=O)(=O)C1)c1ccc(Br)s1` (stereo unspecified) as the molecule, how does the Potency read?
Answer: inactive

Question: Which Potency does the source give for `CCCn1c(=O)c2[nH]c(C3CCCC3)nc2n(CCC)c1=O` here?
Answer: inconclusive: 18.4 µM [cytotoxic, partial curve]

Question: With `Oc1ccc2ccccc2c1CN1CCN(c2ccccc2)CC1` as the molecule, how does the Potency read?
Answer: inconclusive: 32.6 µM [rising, single point]

Question: For `COc1cccc(NC(=O)C2(C)CCN2Cc2ccccc2OC(F)F)c1` (stereo unspecified), which Potency is on record?
Answer: inconclusive: 20.6 µM [cytotoxic, partial curve, poor fit]

Question: With `COc1ccc(C2C(C#N)=C(N)Oc3n[nH]c(C)c32)cc1Cn1nnc2ccccc21` (stereo unspecified) as the molecule, how does the Potency read?
Answer: inconclusive: 25.9 µM [cytotoxic, single point]

Question: Which Potency does the source give for `Cc1ccc(N2C(=O)C(CC(=O)Nc3ccc(F)cc3)N(CCC3=CCCCC3)C2=O)cc1` (stereo unspecified) here?
Answer: inconclusive: 29.1 µM [cytotoxic, single point]

Question: For `COc1cc(OC)cc(C(=O)NC2CC(C)(C)NC(C)(C)C2)c1`, which Potency is on record?
Answer: inactive

Question: Which Potency does the source give for `O=[N+]([O-])c1cccnc1N1CCC(c2cc(-c3ccc(Cl)cc3Cl)n[nH]2)CC1` here?
Answer: inactive

Question: For `COc1cc(/C=N/NC2=NC(C)(C)Cc3ccccc32)cc(OC)c1OC`, which Potency is on record?
Answer: inactive

Question: With `COc1ccc(C(=O)/C(C#N)=N/Nc2cccc([N+](=O)[O-])c2)cc1` as the molecule, how does the Potency read?
Answer: active: 5.8 µM

Question: With `O=C(c1ccc(NS(=O)(=O)c2cccc([N+](=O)[O-])c2)cc1)N1CCCCCC1` as the molecule, how does the Potency read?
Answer: inactive

Question: With `CN(C)CCN(C(=O)c1ccccc1Cl)c1nc2c(Cl)cccc2s1` as the molecule, how does the Potency read?
Answer: active: 23.1 µM

Question: For `COc1ccc(C(CNC(=O)CCNC(=O)c2ccccc2OC)N2CCCC2)cc1` (stereo unspecified), which Potency is on record?
Answer: inconclusive: 23.1 µM [cytotoxic, single point]

Question: With `COCCOC(=O)c1c(NC(=O)CN2c3ccccc3CC2C)sc(C(N)=O)c1C` (stereo unspecified) as the molecule, how does the Potency read?
Answer: inconclusive: 1.46 µM [cytotoxic, full curve]

Question: For `C=CCNc1ncnc2c1ncn2[C@H]1CN(Cc2ccccc2)C[C@@H](COC(C)=O)O1`, which Potency is on record?
Answer: inactive

Question: With `COc1ccc(C(=O)c2ccc(N(C)C)cc2)c(OC)c1` as the molecule, how does the Potency read?
Answer: inconclusive: 2.24 µM [cytotoxic, partial curve, poor fit]

Question: Which Potency does the source give for `CC1(C)OC(=O)C2=C(C[C@@H](CCOCc3ccccc3)O[C@H]2c2ccc(F)cc2)O1` here?
Answer: inconclusive: 23.1 µM [cytotoxic, single point]

Question: With `CC(=O)c1cccc(S(=O)(=O)Nc2c(C)nn(C)c2C)c1` as the molecule, how does the Potency read?
Answer: inconclusive: 20.6 µM [rising, single point]

Question: With `C[C@H]1COC(=O)[C@H](CC(=O)OC(C)(C)C)C/C=C\C[C@@H](CC(=O)N(CCO)Cc2ccccc2)C(=O)N1` as the molecule, how does the Potency read?
Answer: inactive

Question: Which Potency does the source give for `Cc1nc2c(c(C)c1CCC(=O)N1CCN(c3ccccc3)CC1)c(=O)n(C)c(=O)n2C` here?
Answer: inactive

Question: Which Potency does the source give for `C/C=C\C=C\C(=O)Nc1cccc(C2=NOC3(C2)C[C@H](C(N)=O)N(C(=O)c2ccccc2C(=O)c2ccccc2)C3)c1` (stereo partly specified) here?
Answer: inactive

Question: With `COc1cccc(NC(=O)c2c(-c3ccc(C)cc3)nnc3ccccc23)c1` as the molecule, how does the Potency read?
Answer: inactive

Question: For `Cc1cccc(NS(=O)(=O)c2cccc(C(=O)NCCCN3CCOCC3)c2)c1`, which Potency is on record?
Answer: inactive

Question: For `CC(C)(C)NNC(=S)Nc1cccc(C(F)(F)F)c1`, which Potency is on record?
Answer: inactive

Question: For `O=C(CCC1CCCN(C(=O)c2cccc(F)c2)C1)N1CCN(c2ccccn2)CC1` (stereo unspecified), which Potency is on record?
Answer: inconclusive: 13 µM [cytotoxic, partial curve]

Question: For `Cc1cc(S(=O)(=O)N(Cc2ccccc2Cl)c2ccc3c(c2)CCC3)ccc1-n1cnnn1`, which Potency is on record?
Answer: inconclusive: 7.31 µM [cytotoxic, partial curve]

Question: Which Potency does the source give for `COc1ccc(CCNC(=O)C2CC(=O)N(CCc3ccccc3)C2)cc1OC` (stereo unspecified) here?
Answer: inconclusive: 29.1 µM [rising, single point]

Question: Which Potency does the source give for `Cc1cc(OC(C)C(=O)NCC(O)c2ccccc2)c2c(C)c(C)c(=O)oc2c1` (stereo unspecified) here?
Answer: inconclusive: 3.66 µM [cytotoxic, single point]

Question: With `CCOC(=O)c1ccccc1NS(=O)(=O)c1ccc(OC)cc1` as the molecule, how does the Potency read?
Answer: inconclusive: 20.6 µM [cytotoxic, single point]

Question: With `Cc1ccc(C)c(S(=O)(=O)C(C#N)c2nc3ccccc3nc2N2CCOCC2)c1` (stereo unspecified) as the molecule, how does the Potency read?
Answer: active: 11.6 µM

Question: With `O=C(CN1C(=O)NC2(CCCCC2)C1=O)NCc1cccs1` as the molecule, how does the Potency read?
Answer: inconclusive: 3.66 µM [rising, partial curve]

Question: Which Potency does the source give for `Cc1ccc(-n2c3nc(=O)[nH]c(=O)c-3cc3cc([N+](=O)[O-])ccc32)cc1` here?
Answer: inconclusive: 29.1 µM [cytotoxic, single point]

Question: With `COc1ccc(NC(=O)CSc2ccc(-c3ccco3)nn2)cc1OC` as the molecule, how does the Potency read?
Answer: inconclusive: 13 µM [cytotoxic, partial curve]

Question: With `Cc1ccc(C)c(Cn2c(=O)n(-c3ccc(Cl)cc3)c(=O)c3c4c(sc32)CCC4)c1` as the molecule, how does the Potency read?
Answer: inconclusive: 16.4 µM [rising, single point]

Question: With `CCn1c(CSc2nc(C)cc(C)n2)nnc1SCC(=O)Nc1nc(-c2ccccc2)cs1` as the molecule, how does the Potency read?
Answer: inconclusive: 20.6 µM [cytotoxic, single point]

Question: With `COc1ccccc1CN1C(=O)CN(C2CCCC2)C(=O)C1c1ccc(F)cc1` (stereo unspecified) as the molecule, how does the Potency read?
Answer: active: 3.66 µM

Question: With `Cc1ccc(NC(=O)C2(C)CCN2C(=O)Cc2cc(F)ccc2F)cc1` (stereo unspecified) as the molecule, how does the Potency read?
Answer: inactive

Question: Which Potency does the source give for `CN(CCOc1ccccc1)C(=O)c1ccc2c(c1)OCO2` here?
Answer: inconclusive: 23.1 µM [cytotoxic, single point]

Question: Which Potency does the source give for `O=C(CN1CCCCC1)N/N=C/c1cccc(Cl)c1` here?
Answer: inconclusive: 29.1 µM [rising, single point]

Question: For `O=C(NCc1ccccn1)c1cc(-c2ccccc2Cl)nc2ccccc12`, which Potency is on record?
Answer: active: 18.4 µM

Question: For `COc1ccc(CN2C(=O)C(CC(=O)NCCCCc3ccccc3)CC(C(=O)N(C)C)=C2C)cc1` (stereo unspecified), which Potency is on record?
Answer: inactive

Question: With `CCCCSc1nc2sc3c(c2c(=O)n1-c1ccccc1C)CC(C)(C)OC3` as the molecule, how does the Potency read?
Answer: inconclusive: 14.6 µM [cytotoxic, partial curve]

Question: Which Potency does the source give for `Cc1cc(F)ccc1NC(=O)Cn1cc(S(=O)(=O)NC(C)C)c(S(=O)(=O)NC(C)C)c1` here?
Answer: inactive

Question: With `CSC1=NC(=O)/C(=C\c2cccc3ccccc23)S1` as the molecule, how does the Potency read?
Answer: inconclusive: 18.4 µM [cytotoxic, single point]

Question: For `CCC(C)NCCOCCOc1ccc(Cl)c(C)c1C` (stereo unspecified), which Potency is on record?
Answer: inconclusive: 9.2 µM [cytotoxic, partial curve]

Question: Which Potency does the source give for `Cc1cc(C)cc(NC(=S)N2C3CCCC2CC(NC(=O)C2CC2)C3)c1` (stereo unspecified) here?
Answer: inconclusive: 18.4 µM [cytotoxic, partial curve]

Question: With `CCn1nc(C)c(CN2CCC(n3nccc3NC(=O)Cc3ccccc3)CC2)c1C` as the molecule, how does the Potency read?
Answer: inconclusive: 3.26 µM [rising, full curve, poor fit]

Question: Which Potency does the source give for `CCn1c(N)c(C(=O)Nc2ccccc2C(=O)OC)sc1=S` here?
Answer: inactive

Question: For `Cc1cc(C(F)(F)F)nc(SCCN2CCCCC2)c1C#N`, which Potency is on record?
Answer: inconclusive: 9.2 µM [cytotoxic, partial curve, poor fit]

Question: With `COc1ccc(CNC(=O)C2CCN(S(=O)(=O)c3ccc(N4CCCC4=O)cc3)CC2)cc1` as the molecule, how does the Potency read?
Answer: inactive

Question: For `C=C(C)[C@@H]1CC=C(CN2CCC(N3CCC(C(=O)N4CCCC4)CC3)CC2)CC1`, which Potency is on record?
Answer: inconclusive: 8.2 µM [cytotoxic, partial curve]

Question: For `O=C(Nc1ccc(Cl)cn1)Nc1ccccc1F`, which Potency is on record?
Answer: inactive

Question: Which Potency does the source give for `COc1ccc(-c2noc(CCc3ccccc3)n2)cc1` here?
Answer: inconclusive: 29.1 µM [cytotoxic, single point]

Question: Which Potency does the source give for `COc1ccc(NC(C)=O)cc1NC(=O)c1cccc(S(=O)(=O)N2CCc3ccccc32)c1` here?
Answer: inactive

Question: Which Potency does the source give for `Cc1ccc(S(=O)(=O)N(CC(=O)N2CCc3ccccc3C2)c2cccc(Cl)c2)cc1` here?
Answer: inconclusive: 11.6 µM [cytotoxic, partial curve]

Question: Which Potency does the source give for `CN(C)S(=O)(=O)c1cccc(C(=O)Nc2ccccc2Cl)c1` here?
Answer: active: 16.4 µM

Question: With `COc1ccc(C2NCCc3c2[nH]c2ccccc32)cc1CSc1nc2ccccc2s1` (stereo unspecified) as the molecule, how does the Potency read?
Answer: active: 23.1 µM

Question: Which Potency does the source give for `COc1ccc(C(=O)OCc2c(-c3ccccc3)ncc3ccccc23)cc1` here?
Answer: inactive

Question: For `CCN(Cc1ccccc1)S(=O)(=O)c1cc(Br)cc2c1N(C(=O)C1CC1)CC2`, which Potency is on record?
Answer: inactive

Question: For `COc1ccc(Nc2ncnc3c2cnn3-c2cccc(C)c2)cc1OC`, which Potency is on record?
Answer: inconclusive: 29.1 µM [rising, single point]

Question: Which Potency does the source give for `N#C/C(=C\c1ccccc1C(=O)O)c1nc2ccccc2[nH]1` here?
Answer: inactive

Question: With `O=C(CN1C2=NCCCN2c2ccccc21)c1ccc(Br)s1` as the molecule, how does the Potency read?
Answer: active: 10.3 µM

Question: For `C=CCn1c(SCC(=O)NCC2CCCO2)nc2sc(C)c(C)c2c1=O` (stereo unspecified), which Potency is on record?
Answer: inconclusive: 18.4 µM [cytotoxic, single point]

Question: For `O=C(NCc1ccccn1)c1nn(-c2ccccc2)c(=O)c2ccccc12`, which Potency is on record?
Answer: inconclusive: 4.61 µM [cytotoxic, partial curve, poor fit]

Reference: PubChem BioAssay AID1347076 (National Center for Advancing Translational Sciences (NCATS), 2019)
